Laboratory results from patent publication US11591335B2, “Bicyclic pesticidal compounds” (BASF SE, priority 2017, dated 2023).
Some entries share one result that the patent states for a list of compounds. For at least one compound, name, drawing or mass did not settle the structure.

Assays:
Format in all cases: in vivo
Spodoptera Eridania = experiment: Southern armyworm (Spodoptera Eridania), sprayed lima bean plants; conditions: 300 ppm; larvae, 4 days after treatment
Protocol: The active compounds were formulated by a Tecan liquid handler in 100% cyclohexanone as a 10,000 ppm solution supplied in tubes. The 10,000 ppm solution was serially diluted in 100% cyclohexanone to make interim solutions. These served as stock solutions for which final dilutions were made by the Tecan in 50% acetone:50% water (v/v) into 10 or 20 ml glass vials. A nonionic surfactant (Kinetic®) was included in the solution at a volume of 0.01% (v/v). The vials were then inserted into an automated electrostatic sprayer equipped with an atomizing nozzle for application to plants/insects.
Lima bean plants (variety Sieva) were grown 2 plants to a pot and selected for treatment at the 1st true leaf stage. Test solutions were sprayed onto the foliage by an automated electrostatic plant sprayer equipped with an atomizing spray nozzle. The plants were dried in the sprayer fume hood and then removed from the sprayer. Each pot was placed into perforated plastic bags with a zip closure. About 10 to 11 armyworm larvae were placed into the bag and the bags zipped closed. Test plants were maintained in a growth room at about 250C and about 20-40% relative humidity for 4 days, avoiding direct exposure to fluorescent light (24 hour photoperiod) to prevent trapping of heat inside the bags. Mortality and reduced feeding were assessed 4 days after treatment, compared to untreated control plants.

Heliothis virescens = experiment: Tobacco budworm (Heliothis virescens) control, microtiter plate insect diet test; conditions: 2500 ppm; egg and larval mortality after 5 days
Protocol: For evaluating control of tobacco budworm (Heliothis virescens) the test unit consisted of 96-well-microtiter plates containing an insect diet and 15-25 H. virescens eggs.
The compounds were formulated using a solution containing 75% v/v water and 25% v/v DMSO. Different concentrations of formulated compounds were sprayed onto the insect diet at 10 μl, using a custom built micro atomizer, at two replications.
After application, microtiter plates were incubated at about 28±1° C. and about 80±5% relative humidity for 5 days. Egg and larval mortality was then visually assessed.

Aphis craccivora = experiment: Cowpea aphid (Aphis craccivora), sprayed potted cowpea plants; conditions: 300 ppm; after 72 hours
Protocol: (§1) The active compound is dissolved at the desired concentration in a mixture of 1:1 (vol:vol) distilled water: acetone. Surfactant (Kinetic® HV) is added at a rate of 0.01% (vol/vol). The test solution is prepared at the day of use.
Potted cowpea plants were colonized with approximately 30-50 aphids of various stages by manually transferring a leaf tissue cut from infested plant 24 hours before application. Plants were sprayed with the test solutions using a DeVilbiss® hand atomizer at 20-30 psi (=1.38 to 2.07 bar) after the pest population has been checked. Treated plants are maintained on light carts at about 25-26° C. Percent mortality was assessed after 72 hours.

Myzuspersicae = experiment: Green peach aphid (Myzuspersicae) control through systemic means, artificial diet under membrane; conditions: 2500 ppm; adult aphids on treated diet, 3 days
Description: For evaluating control of green peach aphid (Myzuspersicae) through systemic means the test unit consisted of 96-well-microtiter plates containing liquid artificial diet under an artificial membrane.
The compounds were formulated using a solution containing 75% v/v water and 25% v/v DMSO. Different concentrations of formulated compounds were pipetted into the aphid diet, using a custom built pipetter, at two replications.
After application, 5-8 adult aphids were placed on the artificial membrane inside the microtiter plate wells. The aphids were then allowed to suck on the treated aphid diet and incubated at about 23±1° C. and about 50±5% relative humidity for 3 days. Aphid mortality and fecundity was then visually assessed.

Megoura viciae = experiment: Vetch aphid (Megoura viciae) control, broad bean leaf disk test; conditions: 2500 ppm; adult aphids on treated leaf disks, 5 days
Protocol: For evaluating control of vetch aphid (Megoura viciae) through contact or systemic means the test unit consisted of 24-well-microtiter plates containing broad bean leaf disks.
The compounds were formulated using a solution containing 75% v/v water and 25% v/v DMSO. Different concentrations of formulated compounds were sprayed onto the leaf disks at 2.5 μl, using a custom built micro atomizer, at two replications.
After application, the leaf disks were air-dried and 5-8 adult aphids placed on the leaf disks inside the microtiter plate wells. The aphids were then allowed to suck on the treated leaf disks and incubated at about 23±1° C. and about 50±5% relative humidity for 5 days. Aphid mortality and fecundity was then visually assessed.

Anthonomus grandis = experiment: Boll weevil (Anthonomus grandis) control, microtiter plate insect diet test; conditions: 2500 ppm; egg and larval mortality after 5 days
Protocol: For evaluating control of boll weevil (Anthonomus grandis) the test unit consisted of 96-well-microtiter plates containing an insect diet and 5-10 A. grandis eggs.
The compounds were formulated using a solution containing 75% v/v water and 25% v/v DMSO. Different concentrations of formulated compounds were sprayed onto the insect diet at 5 μl, using a custom built micro atomizer, at two replications.
After application, microtiter plates were incubated at about 25±1° C. and about 75±5% relative humidity for 5 days. Egg and larval mortality was then visually assessed.

Plutella xylostella = experiment: Diamond back moth (Plutella xylostella), cabbage leaf dip test; conditions: 300 ppm; 3rd instar larvae, 72 hours after treatment
Protocol: as §1
Leaves of cabbage were dipped in test solution and air-dried. Treated leaves were placed in petri dishes lined with moist filter paper and inoculated with ten 3rd instar larvae. Mortality was recorded 72 hours after treatment. Feeding damages were also recorded using a scale of 0-100%.

Bemisia argentifolii = experiment: Silverleaf whitefly (Bemisia argentifolii), sprayed cotton plants; conditions: 300 ppm; adults, 3 days after treatment
Protocol: The active compounds were formulated by a Tecan liquid handler in 100% cyclohexanone as a 10,000 ppm solution supplied in tubes. The 10,000 ppm solution was serially diluted in 100% cyclohexanone to make interim solutions. These served as stock solutions for which final dilutions were made by the Tecan in 50% acetone:50% water (v/v) into 5 or 10 ml glass vials. A nonionic surfactant (Kinetic®) was included in the solution at a volume of 0.01% (v/v). The vials were then inserted into an automated electrostatic sprayer equipped with an atomizing nozzle for application to plants/insects.
Cotton plants at the cotyledon stage (one plant per pot) were sprayed by an automated electrostatic plant sprayer equipped with an atomizing spray nozzle. The plants were dried in the sprayer fume hood and then removed from the sprayer. Each pot was pla-ced into a plastic cup and about 10 to 12 whitefly adults (approximately 3-5 days old) were introduced. The insects were collected using an aspirator and a nontoxic Tygon® tubing connected to a barrier pipette tip. The tip, containing the collected insects, was then gently inserted into the soil containing the treated plant, allowing insects to crawl out of the tip to reach the foliage for feeding. Cups were covered with a reusable screened lid. […] Mortality was assessed 3 days after treatment, compared to untreated control plants.

Nephotettix virescens = experiment: Rice green leafhopper (Nephotettix virescens), sprayed rice seedlings; conditions: 300 ppm; adults, after 72 hours
Protocol: Four to five-week old rice seedlings with cut upper leaf portion were cleaned and washed 24 hours before spraying. The active compounds were formulated in 1:1 acetone:water (vol:vol), and 0.01% vol/vol surfactant (Kinetic® HV) was added. Potted rice seedlings were sprayed with 5-6 ml test solution, air dried, covered with Mylar cages and inoculated with 10 adults. Treated rice plants were kept at about 28-29° C. and relative humidity of about 50-60%. Percent mortality was recorded after 72 hours.

Nezara viridula = experiment: Green soldier stink bug (Nezara viridula), sprayed soybean pods in Petri dishes; conditions: 300 ppm; late 3rd instar, after 5 days
Protocol: The active compound is dissolved at the desired concentration in a mixture of 1:1 (vol:vol) distilled water: aceteone. Surfactant (Kinetic® HV) is added at a rate of 0.01% (vol/vol). The test solution is prepared at the day of use.
Soybean pods were placed in 90×50 mm glass Petri dishes lined with moist filter paper and inoculated with ten late 3rd instar N. viridula. Using a hand atomizer, an approximately 2 ml solution is sprayed into each Petri dish. Treated cups were kept at about 25-26° C. and relative humidity of about 65-70%. Percent mortality was recorded after 5 days.

Measured: mortality in comparison with untreated controls

CCS(=O)(=O)c1ccc(-n2cnnn2)nc1-c1cn2c(=O)n(C)c(C(F)(F)F)cc2n1 [I-1-2]
over 75%: Spodoptera Eridania | Heliothis virescens | Aphis craccivora | Myzuspersicae | Megoura viciae | Anthonomus grandis

CCS(=O)(=O)c1cc(-c2ncccc2F)cnc1-c1cn2c(=O)n(C)c(C(F)(F)F)cc2n1 [I-1-4]
not listed: Nephotettix virescens | Nezara viridula
over 75%: all other assays above

CCS(=O)(=O)c1ccc(-n2cncn2)nc1-c1cn2c(=O)n(C)c(C(F)(F)F)cc2n1 [I-1-5]
over 75%: Spodoptera Eridania | Heliothis virescens | Plutella xylostella | Myzuspersicae | Anthonomus grandis

CCS(=O)(=O)c1ccc(-n2ccnn2)nc1-c1cn2c(=O)n(C)c(C(F)(F)F)cc2n1 [I-1-6]
not listed: Bemisia argentifolii | Nephotettix virescens | Nezara viridula
over 75%: all other assays above

CCS(=O)(=O)c1cc(-c2cccs2)cnc1-c1cn2c(=O)n(C)c(C(F)(F)F)cc2n1 [I-1-7]
over 75%: Heliothis virescens | Aphis craccivora | Myzuspersicae | Anthonomus grandis

CCS(=O)(=O)c1ccc(-n2cncn2)nc1-c1nc2cc(C(F)(F)F)n(C)c(=O)n2c1C [I-1-8]
over 75%: Nephotettix virescens | Plutella xylostella | Aphis craccivora | Nezara viridula

CCS(=O)(=O)c1ccc(-n2ccnn2)nc1-c1nc2cc(C(F)(F)F)n(C)c(=O)n2c1C [I-1-9]
over 75%: Spodoptera Eridania | Heliothis virescens | Aphis craccivora | Myzuspersicae | Megoura viciae | Anthonomus grandis

CCS(=O)(=O)c1ccc(-n2cccn2)nc1-c1cn2c(=O)n(C)c(C(F)(F)F)cc2n1 [I-1-10]
over 75%: Heliothis virescens | Myzuspersicae | Megoura viciae | Anthonomus grandis

CCS(=O)(=O)c1cnc(-n2cncn2)cc1-c1cn2c(=O)n(C)c(C(F)(F)F)cc2n1 [I-2-1]
over 75%: Spodoptera Eridania | Heliothis virescens | Myzuspersicae | Anthonomus grandis
